Experimental data taken from paper PMC12270184.
No constants are given. Whether binding was seen depends on the method and setting. Some entries that bind do so weakly or less than the wild type.

Biological target: Dihydrolipoamide S-acetyltransferase (DLAT) (mouse (endogenous in substantia nigra tissue of C57BL/6J mice)) (UniProt Q8BMF4)
Test: Western blot of oligomers; SN tissue of Saline and MPTP-treated mice homogenised in RIPA buffer with PMSF, SDS-PAGE, blot with anti-DLAT antibody; gel conditions for the oligomer band not told

binding: binds
B1: Dihydrolipoamide S-acetyltransferase (DLAT) (protein, UniProt Q8BMF4 86-642)
chain: SLPPHQKVPLPSLSPTMQAGTIARWEKKEGEKISEGDLIAEVETDKATVGFESLEECYMAKILVPEGTRDVPVGSIICITVEKPQDIEAFKNYTLDLAAAAAPQAAPAAAPAPAAAPAAPSASAPGSSYPTHMQIVLPALSPTMTMGTVQRWEKKVGEKLSEGDLLAEIETDKATIGFEVQEEGYLAKILVPEGTRDVPLGAPLCIIVEKQEDIAAFADYRPTEVTSLKPQAAPPAPPPVAAVPPTPQPVAPTPSAAPAGPKGRVFVSPLAKKLAAEKGIDLTQVKGTGPEGRIIKKDIDSFVPSKAAPAAAAAMAPPGPRVAPAPAGVFTDIPISNIRRVIAQRLMQSKQTIPHYYLSVDVNMGEVLLVRKELNKMLEGKGKISVNDFIIKASALACLKVPEANSSWMDTVIRQNHVVDVSVAVSTPAGLITPIVFNAHIKGLETIASDVVSLASKAREGKLQPHEFQGGTFTISNLGMFGIKNFSAIINPPQACILAIGASEDKLIPADNEKGFDVASVMSVTLSCDHRVVDGAVGAQWLAEFKKYLEKPITMLL
